Measurements published in the supplement of paper PMC12819154, “High-throughput peptide-centric local stability assay extends protein–ligand identification to membrane proteins, tissues and bacteria” (Nature Structural & Molecular Biology, 2025).
This is one part of the list. Most entries show no effect beyond the scatter of the controls.

By UniProt entry, the sequences of proteins in these tests, tags left out. Where a name states a change or a piece, a line headed by the entry shows the natural chain unless it says otherwise.
UniProt Q3U2C5: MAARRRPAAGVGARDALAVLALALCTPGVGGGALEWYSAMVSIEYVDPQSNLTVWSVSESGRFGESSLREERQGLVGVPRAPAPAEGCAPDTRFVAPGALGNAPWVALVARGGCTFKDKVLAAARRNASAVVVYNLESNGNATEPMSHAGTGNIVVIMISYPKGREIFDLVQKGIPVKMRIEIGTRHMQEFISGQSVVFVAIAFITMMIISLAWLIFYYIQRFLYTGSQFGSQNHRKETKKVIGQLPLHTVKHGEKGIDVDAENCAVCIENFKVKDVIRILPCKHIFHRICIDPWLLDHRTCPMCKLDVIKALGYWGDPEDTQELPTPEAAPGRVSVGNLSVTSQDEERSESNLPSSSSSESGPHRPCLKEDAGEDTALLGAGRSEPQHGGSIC
UniProt Q05512: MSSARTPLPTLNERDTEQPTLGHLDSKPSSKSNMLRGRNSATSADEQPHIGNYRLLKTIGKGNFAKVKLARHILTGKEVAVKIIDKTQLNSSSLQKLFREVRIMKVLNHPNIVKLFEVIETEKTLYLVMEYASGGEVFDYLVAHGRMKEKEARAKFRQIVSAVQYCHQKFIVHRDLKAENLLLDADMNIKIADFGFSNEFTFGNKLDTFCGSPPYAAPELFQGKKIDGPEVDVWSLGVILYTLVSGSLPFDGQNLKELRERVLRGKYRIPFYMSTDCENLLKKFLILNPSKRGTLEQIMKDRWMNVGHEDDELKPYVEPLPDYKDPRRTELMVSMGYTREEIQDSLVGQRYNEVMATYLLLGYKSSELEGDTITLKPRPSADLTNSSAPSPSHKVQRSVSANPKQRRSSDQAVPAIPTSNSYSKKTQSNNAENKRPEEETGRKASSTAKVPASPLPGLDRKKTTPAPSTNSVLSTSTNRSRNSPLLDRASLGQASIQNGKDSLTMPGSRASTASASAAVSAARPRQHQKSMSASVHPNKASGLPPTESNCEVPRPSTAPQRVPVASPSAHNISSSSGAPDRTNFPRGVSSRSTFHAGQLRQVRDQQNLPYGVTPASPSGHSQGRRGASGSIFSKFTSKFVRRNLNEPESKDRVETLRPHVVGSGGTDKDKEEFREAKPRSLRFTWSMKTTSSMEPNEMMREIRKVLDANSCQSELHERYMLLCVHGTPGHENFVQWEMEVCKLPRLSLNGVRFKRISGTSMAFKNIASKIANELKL
UniProt Q3TFK5: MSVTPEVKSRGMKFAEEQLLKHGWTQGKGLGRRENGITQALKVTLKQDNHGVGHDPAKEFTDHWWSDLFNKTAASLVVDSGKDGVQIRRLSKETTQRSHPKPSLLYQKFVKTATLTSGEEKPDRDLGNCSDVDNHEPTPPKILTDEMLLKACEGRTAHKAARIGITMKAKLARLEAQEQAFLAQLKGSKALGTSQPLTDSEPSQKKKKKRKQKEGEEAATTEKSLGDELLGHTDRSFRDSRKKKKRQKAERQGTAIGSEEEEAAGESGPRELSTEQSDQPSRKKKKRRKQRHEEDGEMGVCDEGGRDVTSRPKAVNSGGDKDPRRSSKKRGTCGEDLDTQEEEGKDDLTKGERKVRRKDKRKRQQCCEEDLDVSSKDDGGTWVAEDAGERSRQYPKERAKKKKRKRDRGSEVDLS
UniProt Q3TDD9: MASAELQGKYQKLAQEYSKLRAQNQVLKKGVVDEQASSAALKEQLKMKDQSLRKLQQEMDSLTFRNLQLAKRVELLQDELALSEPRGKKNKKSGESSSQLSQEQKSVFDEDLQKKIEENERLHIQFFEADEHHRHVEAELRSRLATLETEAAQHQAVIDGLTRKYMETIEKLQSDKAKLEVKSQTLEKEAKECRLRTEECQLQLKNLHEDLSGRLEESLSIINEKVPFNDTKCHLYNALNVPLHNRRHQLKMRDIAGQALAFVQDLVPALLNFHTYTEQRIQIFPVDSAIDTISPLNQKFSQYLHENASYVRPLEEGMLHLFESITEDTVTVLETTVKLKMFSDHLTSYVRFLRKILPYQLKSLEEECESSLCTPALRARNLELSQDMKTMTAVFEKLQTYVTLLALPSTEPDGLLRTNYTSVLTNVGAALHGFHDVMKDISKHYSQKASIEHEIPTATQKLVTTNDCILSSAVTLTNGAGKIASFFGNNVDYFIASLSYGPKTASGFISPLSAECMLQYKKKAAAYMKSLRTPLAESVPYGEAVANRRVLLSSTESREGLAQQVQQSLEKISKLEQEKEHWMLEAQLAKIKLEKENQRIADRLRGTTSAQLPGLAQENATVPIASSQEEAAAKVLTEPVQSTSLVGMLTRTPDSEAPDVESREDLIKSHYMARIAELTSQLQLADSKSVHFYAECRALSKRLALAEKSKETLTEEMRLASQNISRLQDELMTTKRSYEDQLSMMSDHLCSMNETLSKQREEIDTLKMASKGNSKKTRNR
UniProt Q07079, whole entry: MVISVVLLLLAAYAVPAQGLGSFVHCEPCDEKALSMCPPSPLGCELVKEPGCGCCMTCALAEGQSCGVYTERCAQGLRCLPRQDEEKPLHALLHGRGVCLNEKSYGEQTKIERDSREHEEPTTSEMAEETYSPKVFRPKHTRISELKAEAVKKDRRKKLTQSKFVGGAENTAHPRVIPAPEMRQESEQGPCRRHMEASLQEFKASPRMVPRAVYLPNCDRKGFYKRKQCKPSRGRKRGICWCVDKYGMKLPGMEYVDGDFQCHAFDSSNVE
UniProt Q0VEE6: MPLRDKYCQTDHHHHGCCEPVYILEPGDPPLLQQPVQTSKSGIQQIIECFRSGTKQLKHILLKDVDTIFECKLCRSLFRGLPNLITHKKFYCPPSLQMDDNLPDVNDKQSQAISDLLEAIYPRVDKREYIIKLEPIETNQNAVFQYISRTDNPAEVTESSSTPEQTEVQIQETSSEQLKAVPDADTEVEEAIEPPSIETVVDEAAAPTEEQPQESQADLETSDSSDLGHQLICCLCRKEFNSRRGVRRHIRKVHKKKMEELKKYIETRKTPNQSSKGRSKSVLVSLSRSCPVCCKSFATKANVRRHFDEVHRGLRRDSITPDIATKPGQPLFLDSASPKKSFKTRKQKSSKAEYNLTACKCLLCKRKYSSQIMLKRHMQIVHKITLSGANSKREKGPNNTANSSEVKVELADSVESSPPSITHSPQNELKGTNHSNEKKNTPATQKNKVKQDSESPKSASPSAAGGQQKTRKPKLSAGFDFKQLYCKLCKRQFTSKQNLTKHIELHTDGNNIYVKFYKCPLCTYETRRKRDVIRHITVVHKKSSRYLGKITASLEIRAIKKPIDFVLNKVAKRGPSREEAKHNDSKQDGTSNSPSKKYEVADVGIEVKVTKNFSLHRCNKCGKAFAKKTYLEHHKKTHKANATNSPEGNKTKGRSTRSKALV
UniProt Q3TDN2: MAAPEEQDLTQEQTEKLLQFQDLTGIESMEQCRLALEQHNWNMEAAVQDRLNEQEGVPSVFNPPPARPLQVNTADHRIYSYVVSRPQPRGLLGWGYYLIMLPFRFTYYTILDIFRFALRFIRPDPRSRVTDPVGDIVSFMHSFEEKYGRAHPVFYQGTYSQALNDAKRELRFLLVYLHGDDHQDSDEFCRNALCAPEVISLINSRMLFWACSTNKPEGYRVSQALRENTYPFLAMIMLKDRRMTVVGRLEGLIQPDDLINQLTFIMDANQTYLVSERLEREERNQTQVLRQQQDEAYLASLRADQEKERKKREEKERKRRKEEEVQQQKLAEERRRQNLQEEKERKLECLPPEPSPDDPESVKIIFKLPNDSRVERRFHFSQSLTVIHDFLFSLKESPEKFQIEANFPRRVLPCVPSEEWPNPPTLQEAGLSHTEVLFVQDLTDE
UniProt Q3TTL0: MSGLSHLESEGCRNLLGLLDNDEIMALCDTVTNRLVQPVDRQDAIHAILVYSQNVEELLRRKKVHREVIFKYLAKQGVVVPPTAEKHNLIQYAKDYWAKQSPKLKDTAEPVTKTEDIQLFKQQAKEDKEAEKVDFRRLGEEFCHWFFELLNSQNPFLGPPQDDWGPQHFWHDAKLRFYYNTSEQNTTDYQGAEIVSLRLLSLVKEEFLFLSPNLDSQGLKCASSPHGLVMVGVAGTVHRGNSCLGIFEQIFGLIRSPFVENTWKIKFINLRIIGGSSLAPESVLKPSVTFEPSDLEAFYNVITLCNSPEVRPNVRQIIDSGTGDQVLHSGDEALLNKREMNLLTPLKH
UniProt Q3TAS6: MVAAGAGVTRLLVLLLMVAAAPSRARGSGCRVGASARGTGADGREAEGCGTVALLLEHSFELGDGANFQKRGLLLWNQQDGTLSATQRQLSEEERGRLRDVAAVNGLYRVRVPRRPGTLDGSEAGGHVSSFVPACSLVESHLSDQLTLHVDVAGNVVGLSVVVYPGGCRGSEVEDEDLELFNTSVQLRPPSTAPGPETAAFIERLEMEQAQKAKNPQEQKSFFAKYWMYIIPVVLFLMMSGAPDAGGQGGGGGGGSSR
UniProt Q3TX08: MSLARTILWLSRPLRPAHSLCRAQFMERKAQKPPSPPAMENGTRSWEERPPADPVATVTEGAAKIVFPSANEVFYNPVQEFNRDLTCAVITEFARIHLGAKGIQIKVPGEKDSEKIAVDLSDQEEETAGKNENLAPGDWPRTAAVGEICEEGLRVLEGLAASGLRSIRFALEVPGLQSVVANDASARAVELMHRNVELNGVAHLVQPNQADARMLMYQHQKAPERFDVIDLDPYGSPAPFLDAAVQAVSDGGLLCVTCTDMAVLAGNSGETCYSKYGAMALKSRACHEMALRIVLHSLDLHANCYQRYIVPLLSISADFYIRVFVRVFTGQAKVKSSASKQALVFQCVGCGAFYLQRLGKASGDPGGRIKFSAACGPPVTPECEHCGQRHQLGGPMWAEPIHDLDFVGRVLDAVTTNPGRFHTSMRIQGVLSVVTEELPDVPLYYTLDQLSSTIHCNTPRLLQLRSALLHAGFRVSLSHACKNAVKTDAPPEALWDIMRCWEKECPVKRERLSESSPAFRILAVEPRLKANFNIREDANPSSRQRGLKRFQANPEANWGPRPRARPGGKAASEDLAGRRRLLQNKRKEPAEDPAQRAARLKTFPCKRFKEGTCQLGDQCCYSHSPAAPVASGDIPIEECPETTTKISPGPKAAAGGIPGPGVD
UniProt Q0P5Y3: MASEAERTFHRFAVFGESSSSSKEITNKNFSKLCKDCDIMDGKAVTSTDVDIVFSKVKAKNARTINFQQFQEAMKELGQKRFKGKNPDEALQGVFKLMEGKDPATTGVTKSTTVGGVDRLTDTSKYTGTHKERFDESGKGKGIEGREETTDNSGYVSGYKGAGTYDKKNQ
UniProt Q3TAA7: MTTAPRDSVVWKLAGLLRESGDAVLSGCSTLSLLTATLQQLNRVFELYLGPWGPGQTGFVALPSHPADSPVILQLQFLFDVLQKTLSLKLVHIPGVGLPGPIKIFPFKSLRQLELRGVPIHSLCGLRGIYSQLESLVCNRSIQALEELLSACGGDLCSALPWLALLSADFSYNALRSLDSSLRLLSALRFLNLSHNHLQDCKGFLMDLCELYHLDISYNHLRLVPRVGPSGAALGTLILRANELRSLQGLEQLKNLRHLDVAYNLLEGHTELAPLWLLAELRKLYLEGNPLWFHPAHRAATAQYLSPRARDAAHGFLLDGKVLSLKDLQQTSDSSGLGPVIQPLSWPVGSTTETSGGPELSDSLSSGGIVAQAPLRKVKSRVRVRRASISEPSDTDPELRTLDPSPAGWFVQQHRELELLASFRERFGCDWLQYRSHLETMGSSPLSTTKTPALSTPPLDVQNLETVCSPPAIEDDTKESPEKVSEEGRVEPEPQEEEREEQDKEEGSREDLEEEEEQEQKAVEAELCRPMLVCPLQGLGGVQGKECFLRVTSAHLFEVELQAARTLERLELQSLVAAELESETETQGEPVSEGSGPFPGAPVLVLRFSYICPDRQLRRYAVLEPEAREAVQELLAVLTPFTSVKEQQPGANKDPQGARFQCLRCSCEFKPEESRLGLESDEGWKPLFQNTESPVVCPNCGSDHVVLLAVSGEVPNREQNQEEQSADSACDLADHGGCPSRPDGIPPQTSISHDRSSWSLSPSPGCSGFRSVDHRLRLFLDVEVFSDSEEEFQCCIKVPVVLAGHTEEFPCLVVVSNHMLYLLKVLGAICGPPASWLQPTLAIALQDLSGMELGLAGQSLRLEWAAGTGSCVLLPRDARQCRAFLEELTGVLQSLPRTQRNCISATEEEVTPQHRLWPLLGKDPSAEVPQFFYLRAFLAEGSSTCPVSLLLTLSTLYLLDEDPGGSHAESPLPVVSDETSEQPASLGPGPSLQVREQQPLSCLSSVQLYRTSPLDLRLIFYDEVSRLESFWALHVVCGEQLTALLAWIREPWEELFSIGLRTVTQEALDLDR
UniProt Q07813, whole entry: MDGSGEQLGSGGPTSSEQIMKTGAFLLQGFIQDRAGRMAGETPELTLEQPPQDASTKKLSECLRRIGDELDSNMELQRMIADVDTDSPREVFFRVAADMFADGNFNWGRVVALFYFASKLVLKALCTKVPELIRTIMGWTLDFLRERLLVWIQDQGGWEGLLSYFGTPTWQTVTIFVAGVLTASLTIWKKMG

What follows are targets tested with CN[C@@H]1C[C@H]2O[C@@](C)([C@@H]1OC)n1c3ccccc3c3c4c(c5c6ccccc6n2c5c31)C(=O)NC4 [staurosporine] (assay: log2 fold change of tryptic peptide abundance, ligand vs vehicle (limited proteolysis) (log2 ratio); higher = more trypsin-susceptible (destabilized)). Conditions: ligand concentration: 20 uM; sample: mouse liver crude lysate; replicate design: treated separately.

Question: How did the log2 fold change turn out when “UniProt Q3U2C5 (peptide sequence: KVIGQLPLHTVK, peptide start residue: 241)” was run?
Answer: -0.0639

Question: With “UniProt Q05512 (peptide sequence: TPLPTLNER, peptide start residue: 6)” as the target, how does the log2 fold change read?
Answer: 0.146

Question: Which log2 fold change does the source give for “UniProt Q3TFK5 (peptide sequence: HEEDGEMGVCDEGGRDVTSRPK, peptide start residue: 292)” here?
Answer: -0.408

Question: Which log2 fold change does the source give for “UniProt Q3U0S6 (peptide sequence: VLADAERPLLVQDLWR, peptide start residue: 222)” here?
Answer: -0.178

Question: How did the log2 fold change turn out when “UniProt Q3TYQ9 (peptide sequence: EINMYKK, peptide start residue: 950)” was run?
Answer: 0.284

Question: For “UniProt Q148V8 (peptide sequence: TGPTEEVSSGPMEVLRK, peptide start residue: 980)”, which log2 fold change is on record?
Answer: -0.467

Question: How did the log2 fold change turn out when “UniProt Q04887 (peptide sequence: EAVSQVLK, peptide start residue: 75)” was run?
Answer: 0.0845

Question: How did the log2 fold change turn out when “UniProt Q3TDD9 (peptide sequence: SKETLTEEMR, peptide start residue: 709)” was run?
Answer: -0.408

Question: How did the log2 fold change turn out when “UniProt Q07079 (peptide sequence: HMEASLQEFK, peptide start residue: 194)” was run?
Answer: 0.0633

Question: With “UniProt Q3TEL6 (peptide sequence: YQANNCPICR, peptide start residue: 308)” as the target, how does the log2 fold change read?
Answer: 0.0796

Question: For “UniProt Q0VEE6 (peptide sequence: KYEVADVGIEVK, peptide start residue: 597)”, which log2 fold change is on record?
Answer: 0.3

Question: How did the log2 fold change turn out when “UniProt Q3TDN2 (peptide sequence: FQIEANFPR, peptide start residue: 401)” was run?
Answer: 0.171

Question: “UniProt Q3TTL0 (peptide sequence: LKDTAEPVTK, peptide start residue: 104)” was tested. Which log2 fold change did it give?
Answer: -0.305

Question: With “UniProt Q06649 (peptide sequence: SPSPLLPPPPPKR, peptide start residue: 230)” as the target, how does the log2 fold change read?
Answer: 0.128

Question: “UniProt Q3TAS6 (peptide sequence: LEMEQAQK, peptide start residue: 205)” was tested. Which log2 fold change did it give?
Answer: -0.125

Question: How did the log2 fold change turn out when “UniProt Q3TX08 (peptide sequence: RKEPAEDPAQR, peptide start residue: 586)” was run?
Answer: -0.183

Question: With “UniProt Q14AX6 (peptide sequence: EGFPITAIR, peptide start residue: 743)” as the target, how does the log2 fold change read?
Answer: -0.424

Question: “UniProt Q3KNJ2 (peptide sequence: QAHKDSGETQASSSTSPR, peptide start residue: 230)” was tested. Which log2 fold change did it give?
Answer: -0.634

Question: Which log2 fold change does the source give for “UniProt Q0P5Y3 (peptide sequence: FDESGKGK, peptide start residue: 139)” here?
Answer: -0.221

Question: How did the log2 fold change turn out when “UniProt Q3TAA7 (peptide sequence: TLDPSPAGWFVQQHR, peptide start residue: 401)” was run?
Answer: 0.0305

Question: Which log2 fold change does the source give for “UniProt Q3U182 (peptide sequence: HLLKPWDAK, peptide start residue: 226)” here?
Answer: 0.441

Question: With “UniProt Q3TBW2 (peptide sequence: VFPSQVLKPFLENSK, peptide start residue: 125)” as the target, how does the log2 fold change read?
Answer: 0.341

Question: “UniProt Q07813 (peptide sequence: RIGDELDSNMELQR, peptide start residue: 65)” was tested. Which log2 fold change did it give?
Answer: -0.143

Question: Which log2 fold change does the source give for “UniProt Q3U2J5 (peptide sequence: RFESFNLFSVTEATKK, peptide start residue: 64)” here?
Answer: -0.648

Question: How did the log2 fold change turn out when “UniProt Q08369 (peptide sequence: ANPGRHPNLDMFDDFSEGR, peptide start residue: 196)” was run?
Answer: 0.262
